The list shows a part of the results. Shown are side measurements of this screen, not its main read-out; they come without a call. Compounds called inactive in the main read-out are mostly missing here. Words in brackets tell the shape of the fitted curve; partial curves, single points and poor fits give uncertain potencies.
Test: qHTS Assay for Lipid Storage Modulators in Drosophila S3 Cells;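 as to cell number change: cells counted by Cell Tracker Red CMTPX staining in the red channel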
Conditions: BODIPY lipid droplet fluorescence, 18-24 h; for cell number change: measured here: cell count max response, cells fed with added oleic acid
Procedure, shortened: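 Drosophila S3 cells loaded with oleic acid (400 uM, as added) and compounds at several concentrations; lipid droplets imaged by 488-nm laser-scanning cytometry, 500–530 nm intensity and object ratio to cell channel. Percent activity normalized to 20 uM Triacsin C.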

[1] = measured here: cell number channel AC50, cells fed with added oleic acid
[2] = measured here: lipid fluorescence (Fed channel) AC50, cells fed with added oleic acid

Structure (SMILES)	AC50 [1]	AC50 [2]	cell number change
COP(=O)(CN(Cc1ccccc1)C(=S)Nc1c(C)cccc1C)OC	1.84 µM [rising, partial curve, poor fit]	1.46 µM [rising, partial curve]	–
Cc1csc(SC(C)C(=O)Nc2ccc(S(=O)(=O)N3CCCC3)cc2)n1 (stereo not given)	–	0.00517 µM [rising, full curve, poor fit]	-10.6%
CC(C)CCC(C)NC(=O)CN1C(=O)NC(C)(c2ccc3ccccc3c2)C1=O (stereo not given)	–	–	23.2%
Cc1cccc(N(C(=O)CCC(=O)Nc2ccccn2)C(C(=O)NC(C)C)c2ccc(O)cc2)c1 (stereo not given)	–	–	6.48%
CC1=C(C(=O)OC2CCCCC2)C(c2cccc([N+](=O)[O-])c2)NC(=O)N1 (stereo not given)	–	0.82 µM [falling, full curve]	8.11%
Cc1nc(-c2ccc(C(=O)Nc3ccc(F)cc3)cc2)cs1	2.91 µM [falling, single point]	–	10.8%
COc1ccc(C(C)NC(=O)Nc2ccc(C(C)=O)cc2)cc1OC (stereo not given)	10.3 µM [rising, partial curve, poor fit]	6.51 µM [rising, partial curve]	51.2%
CCOc1ccc(/C=N/NC(=O)c2nnn(-c3nonc3N)c2CN2CCC(C)CC2)cc1	–	0.116 µM [falling, full curve, poor fit]	-10.3%
O=C(CN1C(=O)COc2ccccc21)NCCCN1CCCCC1	–	–	-25.7%
CNCC(=O)Nc1ccc(Cl)c(C(F)(F)F)c1	–	20.6 µM [rising, single point]	48%
COc1ccc(/C=C/C(=O)Nc2ccc(-n3nncc3-c3ccccc3)cc2)cc1OC	–	0.92 µM [rising, full curve]	1.54%
Cc1ccc(-n2c(-c3ccccc3)c[n+]3c2CCC3)cc1	–	–	-35%
S=C1NC2(CCCCC2)NN1c1ccccc1	–	0.366 µM [falling, single point]	–
COC(=O)C1CCN(C(=O)COC(=O)c2ccc(OC)c(S(=O)(=O)N3CCCc4ccccc43)c2)CC1	0.082 µM [falling, full curve, poor fit]	–	–
CCC1C/C(=C/c2cccs2)C(=O)/C(=C/c2cccs2)C1 (stereo not given)	–	0.164 µM [rising, full curve, poor fit]	12.3%
COc1ccc(/C=C/CN2CCC(n3nccc3NC(=O)C3CC3)CC2)cc1	–	–	20.5%
Cc1ccc(CNCC(=O)Nc2cccc(S(=O)(=O)NC3=NCCCCC3)c2)cc1	–	2.91 µM [rising, single point]	–
COc1cccc(OC)c1C(=O)OCC(=O)Nc1ccc(OC(F)(F)F)cc1	3.26 µM [rising, partial curve]	1.03 µM [rising, partial curve]	–
Cc1cc(NC(c2ccc(Cl)cc2)c2ccc3cccnc3c2O)no1 (stereo not given)	–	0.58 µM [falling, single point]	–
CC(NC(=O)C(=O)Nc1nccs1)c1ccccc1 (stereo not given)	1.84 µM [rising, single point]	–	-31.1%

Structure (SMILES)	AC50 [1]	AC50 [2]	cell number change
O=C(OCCc1ccccc1)c1cc(O)c(O)c(O)c1	18.4 µM [falling, single point]	2.06 µM [falling, partial curve, poor fit]	-34.6%
CCCSc1nnc(NC(=O)c2ccco2)s1	–	0.206 µM [rising, full curve, poor fit]	17.1%
CN(C)C(=O)COC(=O)c1cccc(S(=O)(=O)N2CC3(C)CC2CC(C)(C)C3)c1 (stereo not given)	–	–	-0.187%
Cc1nn(C(=O)CCC(=O)NCc2ccc(OC(C)C)cc2)c2ccccc12	2.91 µM [rising, partial curve, poor fit]	–	–
CC(C)N(Cc1ccccc1)C(=S)Nc1ccc(F)cc1	–	0.116 µM [falling, full curve, poor fit]	–
Cc1ccc(-c2nnc(SCC(=O)N/N=C/c3ccccc3C(=O)O)n2C2CCCCC2)cc1	–	18.4 µM [rising, partial curve]	-11.3%
Cc1nnc(SCC(=O)Nc2cc(Cl)ccc2Cl)n1CC1CCCO1 (stereo not given)	–	–	13.3%
O=c1cc(/C=C/c2cccs2)[nH]c2ccccc12	–	6.51 µM [falling, single point]	–
CN(CCC#N)C(=O)c1cc2c(s1)-c1ccccc1SC2	1.64 µM [rising, partial curve]	–	–
C[C@H](NS(=O)(=O)c1ccccc1)C(=O)OCC(=O)NC(=O)Nc1ccc2c(c1)OCCO2	–	0.58 µM [falling, single point]	2.61%
Cc1ccc(C)c(N2CCN(S(=O)(=O)c3ccc(-c4cc(C)no4)s3)CC2)c1	9.2 µM [rising, partial curve]	–	56%
COc1ccc(OC(C)C(=O)NC2CC(C)(C)NC(C)(C)C2)cc1 (stereo not given)	0.366 µM [falling, full curve, poor fit]	0.651 µM [falling, single point]	-26.2%
O=C(Nc1ccncc1)c1cc(F)cc(F)c1	18.4 µM [rising, partial curve, poor fit]	–	43.1%
Cc1cccn2cc(CNC(=O)CC3CCCC3)nc12	29.1 µM [falling, single point]	–	-143%
Cc1sc2nc(CN3CCOCC3)nc(NS(=O)(=O)c3ccccc3)c2c1C	9.2 µM [rising, partial curve]	–	46.9%
CCCN(CC(=O)Nc1ccccc1C)C(=O)c1ccc2[nH]c3c(c2c1)CC(C)CC3 (stereo not given)	–	3.66 µM [falling, partial curve]	-17.1%
CN(C)c1ccc(NC(=O)Cn2ncn3c(cc4ccccc43)c2=O)cc1	–	0.82 µM [rising, full curve]	-0.81%
O=S(=O)(N/N=C/c1ccc2c(c1)OCO2)c1ccc(Br)cc1	–	29.1 µM [falling, single point]	-9.73%
O=C(C1CC1)N1CCc2cc(Br)cc(S(=O)(=O)NCCN3CCOCC3)c21	–	1.16 µM [falling, single point]	6.38%
O=C(CSc1nc2nc(-c3cccs3)cc(C(F)(F)F)c2c(=O)[nH]1)Nc1c(F)c(F)c(F)c(F)c1F	13 µM [rising, partial curve, poor fit]	–	34%

Some of the entries so far, as a markdown table.

| Structure (SMILES) | AC50 [1] | AC50 [2] | cell number change |
| --- | --- | --- | --- |
| CN(CCC#N)C(=O)c1cc2c(s1)-c1ccccc1SC2 | 1.64 µM [rising, partial curve] | – | – |
| C[C@H](NS(=O)(=O)c1ccccc1)C(=O)OCC(=O)NC(=O)Nc1ccc2c(c1)OCCO2 | – | 0.58 µM [falling, single point] | 2.61% |
| Cc1ccc(C)c(N2CCN(S(=O)(=O)c3ccc(-c4cc(C)no4)s3)CC2)c1 | 9.2 µM [rising, partial curve] | – | 56% |
| COc1ccc(OC(C)C(=O)NC2CC(C)(C)NC(C)(C)C2)cc1 (stereo not given) | 0.366 µM [falling, full curve, poor fit] | 0.651 µM [falling, single point] | -26.2% |

Going on with the list.

Structure (SMILES)	AC50 [1]	AC50 [2]	cell number change
O=C(c1cccc([N+](=O)[O-])c1)c1ccc2c(c1)C(=O)NC2=O	0.651 µM [falling, full curve, poor fit]	–	-14.2%
CCC(C)[C@H](NC(=O)N1CC(=O)Nc2ccccc21)C(=O)N[C@H](Cc1c[nH]c2ccccc12)C(=O)O (stereo not given in full)	–	–	-11.7%
O=Cc1ccc(OC(=O)c2cccnc2)cc1	6.51 µM [falling, single point]	–	-1.23%
CN(Cc1ccccc1)C(=O)c1ccccc1-c1ccccc1	0.0058 µM [falling, full curve, poor fit]	–	-45.6%
CCCCn1c(=O)[nH]c(=O)c2c1nc(CN1C(=O)c3ccccc3S1(=O)=O)n2CCC	–	4.61 µM [rising, full curve]	-11.8%
CC1Cc2ccccc2N1S(=O)(=O)c1cccc(C(=O)NC2CC2)c1 (stereo not given)	23.1 µM [rising, partial curve, poor fit]	11.6 µM [rising, partial curve]	55.6%
N#CC1(NC(=O)COC(=O)CSc2ccc(F)cc2)CCCCC1	0.116 µM [falling, full curve, poor fit]	–	-50%
Nc1ncc(CN2CCCC(C(=O)Nc3ccc(-c4ccco4)cc3)C2)cn1 (stereo not given)	–	23.1 µM [rising, single point]	13%
COc1cccc(OCC(O)CN2CCc3ccccc3C2)c1 (stereo not given)	29.1 µM [rising, single point]	29.1 µM [rising, single point]	54.6%
O=c1c2c([N+](=O)[O-])cc([N+](=O)[O-])cc2sn1-c1ccc(Br)cc1	13 µM [falling, partial curve, poor fit]	18.4 µM [falling, partial curve]	-39.1%
COc1ccc(-c2nc(SC)n(C(=O)c3ccco3)n2)cc1	–	–	-48.7%
CCCSc1nnc(NC(=O)Nc2ccc(F)cc2)s1	18.4 µM [falling, partial curve]	–	-214%
COc1cc(NC(=S)N2CCN(S(=O)(=O)c3ccccc3)CC2)cc(OC)c1	–	–	10.4%
O=C(N/C(=C\c1ccc(Cl)cc1)C(=O)N1CCOCC1)c1ccc([N+](=O)[O-])cc1	–	5.8 µM [falling, single point]	-6.76%
Cc1ccccc1CSc1ccc2nnc(-c3ccccn3)n2n1	1.16 µM [falling, single point]	0.58 µM [rising, single point]	-22%
COc1ccc(N=C2NC(=O)C(CC(=O)NCCc3ccc(OC)c(OC)c3)S2)cc1 (stereo not given)	–	2.06 µM [falling, partial curve, poor fit]	-21.4%
CC(C)OC(=O)COc1ccc(-c2ccccc2)cc1	6.51 µM [falling, single point]	–	–
Cn1c(SCC(=O)N2CCOCC2)nnc1-c1ccc(Cl)cc1Cl	20.6 µM [rising, partial curve, poor fit]	29.1 µM [rising, single point]	34.3%
COc1ccc(CCNC(=O)CCCn2nc(C)n3ccnc3c2=O)cc1OC	–	6.51 µM [falling, single point]	18.9%
CCOC(=O)c1nn(-c2ccc3c(c2)OCCO3)cc1O	16.4 µM [rising, single point]	23.1 µM [rising, single point]	40.2%
